Experimental data: PubChem BioAssay AID540276 (National Center for Advancing Translational Sciences (NCATS), 2011)
About 5,400 (1.8%) of roughly 300,000 compounds were called active. This list was built around the results that the source calls inconclusive (neither active nor inactive); the mix of calls is not that of the screen. Calls follow the shape of the full dose curve; tested in HEK293 cells. Where the call is inconclusive, the potency comes from a doubtful curve fit.

Experiment: qHTS for inhibitors of binding or entry into cells for Marburg Virus
Conditions: Marburg virus pseudotyped entry inhibition, cell reporter; series mostly up to 37.8 µM
Potency is read from the fitted curve at half-maximal effect.

Row | Compound | Potency
1 | C=CCn1c(C)cc(C(=O)CSc2nnc(NCc3ccccc3)s2)c1C | inconclusive: 10.3 µM [inhibitor, single point]
2 | CCCCCCCOC(=O)C[N+](C)(C)CCOC1CC2CCC1(C)C2(C)C (stereo not drawn) | active: 11.2 µM
3 | O=C(Nc1ccccc1)OCCOc1ccc(Cl)cc1Cl | inconclusive: 8.91 µM [inhibitor, partial curve, poor fit]
4 | CCOC(=O)COc1ccc2nsnc2c1Cl | inconclusive: 5.62 µM [activator, single point]
5 | COc1ccc(-n2cc(CNCCc3cnc[nH]3)c(-c3cccc(F)c3)n2)cc1 | inactive
6 | CCOc1ccc(Cn2ccnc2)cc1[N+](=O)[O-] | inconclusive: 7.08 µM [inhibitor, partial curve, poor fit]
7 | CCNC(=O)CC1C(=O)N(CC)C(=S)N1NC(=O)c1ccc(Cl)cc1 (stereo not drawn) | inactive
8 | COc1cccc(NC(=O)CSc2nc3c(sc4ccccc43)c(=O)n2CCN(C)C)c1 | inconclusive: 11.2 µM [inhibitor, partial curve, poor fit]
9 | COc1ccccc1C(=O)NNC(=O)c1csc(N2CCOCC2)n1 | inconclusive: 17.8 µM [inhibitor, partial curve, poor fit]
10 | COc1ccccc1NC(=O)CN1CCC(n2c(C)nc3cc(F)ccc32)CC1 | inconclusive: 23.1 µM [inhibitor, partial curve, poor fit]
11 | O=C(c1ccccc1F)N1CCN(c2ccc([N+](=O)[O-])c(N3CCOCC3)c2)CC1 | inconclusive: 7.08 µM [inhibitor, full curve, poor fit]
12 | Cc1cccc(NC(=O)CSc2nc(-c3cccs3)cc(C(F)(F)F)c2C#N)c1 | inconclusive: 31.6 µM [activator, single point]
13 | COc1cccc2c1O/C(=N\O)C(C(=O)Nc1cccc(Br)c1)C2 (stereo not drawn) | inactive
14 | CN=c1scc(C)n1/N=C/c1cc(Br)c(O)c(OC)c1 | inconclusive: 35.5 µM [inhibitor, single point]
15 | COCCn1c(C)cc(C(=O)COC(=O)/C=C/c2c(C)nn(C3CCS(=O)(=O)C3)c2Cl)c1C (stereo not drawn) | inconclusive: 20 µM [inhibitor, partial curve, poor fit]
16 | CCOC(=O)c1ccc(NC(=S)N(CCCN2CCCC2)Cc2cccs2)cc1 | inconclusive: 5.01 µM [inhibitor, full curve]
17 | CC(/C=C/c1ccc(OCc2ccccc2)cc1)=N\O | inconclusive: 35.5 µM [inhibitor, single point]
18 | O=C(NC1CC2CCCC(C1)N2S(=O)(=O)c1ccccc1)c1ccccc1 (stereo not drawn) | inconclusive: 0.1 µM [inhibitor, full curve, poor fit]
19 | COc1ccc2c(C)c(CC(=O)NCCc3ccccc3)c(=O)oc2c1OC | inactive
20 | COc1ccccc1N1CCN(C(c2cc3ccc(C)cc3[nH]c2=O)c2nnnn2C2CCCC2)CC1 (stereo not drawn) | active: 13 µM
21 | CC(C)(C)OC(=O)N[C@H](Cc1ccccc1)C(=O)N1CCC(C(=O)O)CC1 | inactive
22 | CN(C)/N=C/c1ccc(Sc2ccc([N+](=O)[O-])cc2[N+](=O)[O-])o1 | inactive

Row | Compound | Potency
23 | COc1ccc(Cl)cc1NC(=O)C(C)n1nnc2sc3c(c2c1=O)CCCC3 (stereo not drawn) | inactive
24 | CC(NC(=O)C1CCN(S(=O)(=O)c2ccc(Br)s2)CC1)c1ccccc1 (stereo not drawn) | inactive
25 | c1ccc(C(c2nnnn2C2CCCC2)N2CCN(c3nc4ccccc4s3)CC2)cc1 (stereo not drawn) | inconclusive: 12.6 µM [inhibitor, single point]
26 | Cn1c(=O)c2ccccc2n2c(CCC(=O)N3CCN(c4cccc(Cl)c4)CC3)nnc12 | inconclusive: 3.98 µM [inhibitor, partial curve, poor fit]
27 | CC(C)CC(=O)Nc1ncc([N+](=O)[O-])s1 | inconclusive: 14.1 µM [activator, single point]
28 | Nc1n[nH]c(-c2ccccc2[N+](=O)[O-])n1 | inconclusive: 6.31 µM [activator, single point]
29 | CC12CCC3C(CCC4=C(O)C(=O)CCC43C)C1CCC2=O (stereo not drawn) | inconclusive: 1.12 µM [inhibitor, full curve]
30 | C=CC[C@@H]1C=C(C(=O)OC)N(C(=O)C(F)(F)F)[C@@H](c2ccccc2Br)[C@@H]1C | inactive
31 | COc1ccccc1N1CCN(C(=O)COc2ccc(Cl)cc2)CC1 | inconclusive: 25.9 µM [inhibitor, single point]
32 | O=C(Cn1ccc2ccccc21)Nc1ccc2c(c1)OCO2 | inconclusive: 2.51 µM [inhibitor, full curve, poor fit]
33 | CC(=O)c1ccc(NC(=O)c2ccc(C)c(S(=O)(=O)N3CCOCC3)c2)cc1 | inconclusive: 7.08 µM [inhibitor, partial curve, poor fit]
34 | CC1(C)Cc2c(sc(NC(=O)c3ccc4ncsc4c3)c2C(N)=O)C(C)(C)N1 | inconclusive: 35.5 µM [inhibitor, single point]
35 | Cc1cccc2cc(CN(Cc3ccco3)C(=O)NC3CCCCC3)c(=O)[nH]c12 | inconclusive: 1.83 µM [inhibitor, partial curve, poor fit]
36 | CC(C)(C)c1ccc(NC(=O)COC(=O)C2=COCCO2)cc1 | inactive
37 | O=C(NCC(c1ccc(F)cc1)N1CCOCC1)c1cccc(Br)c1 (stereo not drawn) | inconclusive: 7.08 µM [inhibitor, full curve, poor fit]
38 | Cc1ccc(NC(=O)c2cccnc2)cc1C | inconclusive: 3.55 µM [activator, single point]
39 | CC(=O)NC(c1ccc(F)cc1)c1cccnc1 (stereo not drawn) | inconclusive: 3.66 µM [inhibitor, single point]
40 | CCC(Oc1ccc(F)cc1)C(=O)Nc1cc(-c2ccc(C)cc2)no1 (stereo not drawn) | inactive
41 | COc1ccccc1-c1nn(Cc2ccccc2)cc1C(=O)N1CCN(c2ncccn2)CC1 | inconclusive: 14.1 µM [inhibitor, single point]
42 | COc1cc(C)c(Cl)cc1S(=O)(=O)N(C)C | inactive
43 | CCOC(=O)c1sc(NC(=O)CCCn2nc([N+](=O)[O-])c(Cl)c2C)c(C(=O)OCC)c1C | inactive

Nothing new here: 3 of the compounds above.
Row | Compound | Potency
33 | CC(=O)c1ccc(NC(=O)c2ccc(C)c(S(=O)(=O)N3CCOCC3)c2)cc1 | inconclusive: 7.08 µM [inhibitor, partial curve, poor fit]
34 | CC1(C)Cc2c(sc(NC(=O)c3ccc4ncsc4c3)c2C(N)=O)C(C)(C)N1 | inconclusive: 35.5 µM [inhibitor, single point]
35 | Cc1cccc2cc(CN(Cc3ccco3)C(=O)NC3CCCCC3)c(=O)[nH]c12 | inconclusive: 1.83 µM [inhibitor, partial curve, poor fit]
